Data from US9335325B2, “Immunodominant Mycobacterium tuberculosis peptides from cell wall proteins for early diagnosis and immunization” (priority 2008, dated 2016).
Some entries share one result that the patent states for a list of compounds.

Each sequence was assayed on antibodies in sera from TB patients and PPD+/PPD- healthy subjects (assay: ELISA of PE-PGRS51 overlapping peptides with human sera). Conditions: 42 sputum-smear positive TB patients; cut-off mean OD of PPD+/PPD- plus 4 SD.
Type: binding

Sequence	percent of TB patient sera recognizing the peptide (sensitivity), screening
AGAGGNGAAGGDGGANGGAG [PG-31]	at least 45%
DGGLLFGNGGAGYNSAATPG [PG-14]	at least 45%
GGTGGDGGDGGHAGTGGRGG [PG-51]	at least 45%
GGTHGTPGSGNAGGTGTGNA [PG-55]	at least 45%
GHAGTGGRGGLLAGQHANSG [PG-52]	at least 45%
GNGGAGGDANGNPANTSIAN [PG-29]	at least 45%
GTPGGAGVNGGNGGAGGDAN [PG-28]	at least 45%
LAAAASDVANIGSALSAANA [PG-2]	at least 45%
LLAGQHANSGNGGGGGTGGA [PG-53]	at least 45%
LTGNDGVNPAPVTNPALNGA [PG-24]	at least 45%
MAGGNGGNAGLIGNGGTGGS [PG-16]	at least 45%
NGGAGGDAGHGGTGGDGGDG [PG-50]	at least 45%
